# Test results published in PubChem BioAssay AID2417 (National Center for Advancing Translational Sciences (NCATS), 2010).
# Out of some 140,000 compounds screened, about 4,300 (3.1%) were called active. The shares of active, inactive and inconclusive entries below differ from those in the screen.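 Rule for the calls: active = readout at or below -70, meaning at least 70% loss of cells showing the perinucleolar compartment, a nuclear body marking cancer cells; inconclusive = readout between -30 and a set limit; inactive = the rest.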
# Test: High Content Assay for Compounds that inhibit the Assembly of the Perinucleolar Compartment;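 note: plate controls were DMSO wells for no effect and camptothecin positive control wells for full effect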
# Details: PC3M PTB-GFP, PNC prevalence imaging, 16 h; at 10 µM; active compounds read low
# Procedure, shortened: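 PC3M cells stably expressing PTB-GFP, 750–1000 cells/well, treated 16 h at 37 °C with compound (23 nl of library stock), in duplicate. After paraformaldehyde fixation and Hoechst stain, imaged at 20x; PNC prevalence scored by image analysis.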
row,Compound,"activity change (PNC), negative = inhibition"
1,Cc1c(Cl)cccc1NC(=S)NCc1cccn1C,inconclusive: -42.5%
2,CCS(=O)(=O)c1nc(S(=O)(=O)c2ccc(Cl)cc2)c(N2CCc3ccccc3C2)s1,inconclusive: -78.9%
3,C/C(N)=C(/C#N)C(=O)COC(=O)c1ccc(C)c(S(=O)(=O)N2CCCCC2)c1,inactive: -17.7%
4,O=c1c2c(-c3cccs3)csc2[nH]c(=S)n1-c1ccccc1,inconclusive: -31.3%
5,COc1nc(OCC#N)nc(N(C)C)n1,inconclusive: -47.6%
6,Nc1sc2c(c1C(=O)c1ccccc1)CCCC2,inactive: 6.02%
7,Cc1ccccc1NC(=O)Cc1nnc(SCc2ccc(Cl)c(Cl)c2)n1C,inconclusive: -51.2%
8,C/C(=N/NC(=O)Cc1cccs1)c1ccco1,inconclusive: -53%
9,OCCN(Cc1ccccc1)Cc1cccc(Cl)c1Cl,inconclusive: -54.6%
10,CCCCNC(=O)c1cc2c(=O)n3cccc(C)c3nc2n(Cc2ccncc2)c1=N,inconclusive: -48.9%
11,CC(C)CCNC(=O)CCCC1=NS(=O)(=O)c2ccccc2N1,inconclusive: -41.3%
12,O=C(NC(=S)Nc1ccc(Cl)cn1)c1cccs1,inactive: -6.42%
13,COC(=O)C1C2C=CC(C3CC23)C1C(=O)OCC(=O)c1ccc(OC)cc1 (stereo not given),inactive: 16%
14,CCOc1ccc(S(=O)(=O)N(C)c2ccc(OCC(=O)Nc3nc4ccccc4s3)cc2)cc1,inconclusive: -31.9%
15,CCCCCOP(=O)(OCCCCC)C1(NS(=O)(=O)c2ccccc2)C=CC(=O)c2ccccc21 (stereo not given),inactive: -20%
16,CCCN1C(=O)C(Cc2nc3ccccc3c(=O)n2-c2ccccc2)c2ccccc21 (stereo not given),inactive: 41.7%
17,CC(=O)CC(=O)NC(=NC1CCCCC1)Nc1nc(C)cc(C)n1,inconclusive: -57.6%
18,Cc1cc(C)cc(NC(=O)c2ccc(CSc3nnc(C)s3)cc2)c1,inactive: 21.5%
19,CCOc1ccc(CN(C(=O)c2oc3cc(C)ccc3c2C)C2CCS(=O)(=O)C2)cc1 (stereo not given),inconclusive: -42.6%
20,CN(C(=O)CSC1=NCCS1)c1ccccc1,inactive: -21.8%
21,CCC(C)NC(=O)CCCCCn1c(=O)[nH]c2cc(OC)c(OC)cc2c1=O (stereo not given),inconclusive: -53.3%
22,NS(=O)(=O)c1ccc(NC(=S)N2CCN(c3ccccc3Cl)CC2)cc1,inconclusive: -69.8%
23,CCCCOc1ccc(C(CC(=O)NC)C(=O)O)cc1 (stereo not given),inactive: 12.2%
24,C=C(C)CSc1nnc([C@H](CCSC)NC(=O)OC(C)(C)C)o1,inconclusive: -32.2%
25,Cc1ccccc1NC(=O)c1cccc(OCc2c(C)noc2C)c1,inconclusive: -30.2%

# By substructure, the entries above containing four or more nitrogen atoms.
row,Compound,"activity change (PNC), negative = inhibition"
5,COc1nc(OCC#N)nc(N(C)C)n1,inconclusive: -47.6%
7,Cc1ccccc1NC(=O)Cc1nnc(SCc2ccc(Cl)c(Cl)c2)n1C,inconclusive: -51.2%
10,CCCCNC(=O)c1cc2c(=O)n3cccc(C)c3nc2n(Cc2ccncc2)c1=N,inconclusive: -48.9%
17,CC(=O)CC(=O)NC(=NC1CCCCC1)Nc1nc(C)cc(C)n1,inconclusive: -57.6%
22,NS(=O)(=O)c1ccc(NC(=S)N2CCN(c3ccccc3Cl)CC2)cc1,inconclusive: -69.8%
